Experimental data taken from patent US9937194B1, “Compounds and methods for treating inflammatory diseases” (priority 2009, dated 2018).
At least one read-out could not be matched to a standard name with certainty.

Test system: PBMCs from COPD patients
Experiment: Steroid sensitivity in PBMCs from COPD patients (dexamethasone IC50 on TNFα-induced IL-8)
Type: cell-based, human
Details: highest concentrations tested (100 μM)

Compound	effect on IC50 value for dexamethasone (steroid sensitivity)
CC[C@H]1OC(=O)[C@H](C)[C@@H](O[C@H]2C[C@@](C)(OC)[C@@H](O)[C@H](C)O2)[C@H](C)[C@@H](O[C@@H]2O[C@H](C)C[C@H](N(C)C)[C@H]2O)[C@](C)(O)C[C@@H](C)C(=O)[C@H](C)[C@@H](O)[C@]1(C)O [ERY, erythromycin]	decreased the IC50 value for dexamethasone (restored steroid sensitivity)
CC[C@H]1OC(=O)[C@H](C)[C@@H](O[C@H]2C[C@@](C)(OC)[C@@H](O)[C@H](C)O2)[C@H](C)[C@@H](O[C@@H]2O[C@H](C)C[C@H](N(C)C)[C@H]2O)[C@](C)(OC)C[C@@H](C)C(=O)[C@H](C)[C@@H](O)[C@]1(C)O [CLR, clarithromycin, reference compound]	decreased the IC50 value for dexamethasone (restored steroid sensitivity)
